Measured data: PubChem BioAssay AID1224826 (NIAID, 2016)
Aim: 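Knock-downs that raise or lower Tnf reporter signal after endotoxin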 (primary screen). Cell system: RAW264.7 G9 macrophages from mouse bearing reporters for p65 (GFP) and the Tnf promoter (mCherry). Reagent: siRNA pool against mouse genes, 100 nM. Duration: 16 h of LPS stimulation, after 2 days of siRNA transfection. Conditions: bacterial lipopolysaccharide (Salmonella minnesota R595), 10 ng/ml. Measured: 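Nuclear mCherry signal of the Tnf promoter reporter measured by imaging after background removal, scaled to each plate median and turned into robust z-scores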. Direction: Tnf reporter robust z-score: higher = stronger Tnf promoter reporter signal after LPS. Call rule: 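Called active when robust z-score is at most -1.3, matching the median of the Tlr4 knock-down control, or over 3; control wells and wells with under 50 cells never active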. Calls: active = Tnf reporter clearly lowered or raised; inactive = no clear change in Tnf reporter.
Here is an unselected part of about 17,000 reagents. About 1,110 of all reagents (6.6%) count as active. 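Active means lowered or raised reporter signal; replicate intensities are raw and not normalised per plate.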 A number with no mark means an inactive call. The numbers tell different reagents against one gene apart. Further read-outs or replicates are left out here. Reagent sequences are not shown.

Klhdc3 (GeneID 71765)
- Tnf reporter robust z-score: -1.46 (active)
- fewer than 50 cells in well: enough cells in well

Muc6 (GeneID 353328)
- Tnf reporter robust z-score: -0.61
- fewer than 50 cells in well: enough cells in well

H2-K1 (GeneID 14972) #1
- Tnf reporter robust z-score: 0.84
- fewer than 50 cells in well: enough cells in well

H2-K1 (GeneID 14972) #2
- Tnf reporter robust z-score: -0.72
- fewer than 50 cells in well: enough cells in well

Il31ra (GeneID 218624)
- Tnf reporter robust z-score: 0.44
- fewer than 50 cells in well: enough cells in well

Or8w1 (GeneID 258833)
- Tnf reporter robust z-score: 0.18
- fewer than 50 cells in well: enough cells in well

Or5g26 (GeneID 27216)
- Tnf reporter robust z-score: 3.4 (active)
- fewer than 50 cells in well: enough cells in well

Reagents listed above called active, once more:
Klhdc3 (GeneID 71765)
- Tnf reporter robust z-score: -1.46 (active)
- fewer than 50 cells in well: enough cells in well

Or5g26 (GeneID 27216)
- Tnf reporter robust z-score: 3.4 (active)
- fewer than 50 cells in well: enough cells in well

Additional entries follow.
Marcksl1 (GeneID 17357)
- Tnf reporter robust z-score: -0.84
- fewer than 50 cells in well: enough cells in well

Atp8b3 (GeneID 67331)
- Tnf reporter robust z-score: -0.14
- fewer than 50 cells in well: enough cells in well

Gstm2 (GeneID 14863)
- Tnf reporter robust z-score: -0.86
- fewer than 50 cells in well: enough cells in well

Tmem143 (GeneID 70209)
- Tnf reporter robust z-score: 2.12
- fewer than 50 cells in well: enough cells in well

Hoxaas2 (GeneID 105242657)
- Tnf reporter robust z-score: 0.74
- fewer than 50 cells in well: enough cells in well

Tmem161b (GeneID 72745)
- fewer than 50 cells in well: fewer than 50 cells per well; well left out of calls

Ccng2 (GeneID 12452)
- Tnf reporter robust z-score: 1.04
- fewer than 50 cells in well: enough cells in well

Xkr8 (GeneID 381560)
- fewer than 50 cells in well: fewer than 50 cells per well; well left out of calls

Cd151 (GeneID 12476)
- Tnf reporter robust z-score: 0.2
- fewer than 50 cells in well: enough cells in well

Bmpr2 (GeneID 12168)
- Tnf reporter robust z-score: -1.06
- fewer than 50 cells in well: enough cells in well

Auts2 (GeneID 319974)
- Tnf reporter robust z-score: -1.33 (active)
- fewer than 50 cells in well: enough cells in well

Gm4793 (GeneID 215714)
- Tnf reporter robust z-score: -1.57 (active)
- fewer than 50 cells in well: enough cells in well

Ifna16 (GeneID 230398)
- Tnf reporter robust z-score: -0.16
- fewer than 50 cells in well: enough cells in well

Arhgap1 (GeneID 228359)
- fewer than 50 cells in well: fewer than 50 cells per well; well left out of calls
